Results published in the supplement of paper PMC10849652.
This is one part of the list.

By UniProt entry, the sequences of proteins in these tests, tags left out. Where a name states a change or a piece, a line headed by the entry shows the natural chain unless it says otherwise.
UniProt O00287: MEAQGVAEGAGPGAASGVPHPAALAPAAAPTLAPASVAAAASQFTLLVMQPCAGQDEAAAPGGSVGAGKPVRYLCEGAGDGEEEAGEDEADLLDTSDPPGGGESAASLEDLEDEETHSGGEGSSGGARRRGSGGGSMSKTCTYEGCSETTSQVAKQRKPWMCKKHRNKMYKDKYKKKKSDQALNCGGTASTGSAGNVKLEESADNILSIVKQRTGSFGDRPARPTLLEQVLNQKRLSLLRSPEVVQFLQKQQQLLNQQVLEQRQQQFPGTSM
UniProt Q96PM5: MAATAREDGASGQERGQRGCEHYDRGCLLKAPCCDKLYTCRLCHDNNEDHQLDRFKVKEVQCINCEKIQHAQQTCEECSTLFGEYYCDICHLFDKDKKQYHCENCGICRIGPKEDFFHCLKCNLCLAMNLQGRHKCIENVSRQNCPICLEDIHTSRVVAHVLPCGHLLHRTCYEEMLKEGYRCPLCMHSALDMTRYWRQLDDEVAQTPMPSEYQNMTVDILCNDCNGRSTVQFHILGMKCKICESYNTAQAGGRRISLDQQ
UniProt Q96I51, whole entry, looked up: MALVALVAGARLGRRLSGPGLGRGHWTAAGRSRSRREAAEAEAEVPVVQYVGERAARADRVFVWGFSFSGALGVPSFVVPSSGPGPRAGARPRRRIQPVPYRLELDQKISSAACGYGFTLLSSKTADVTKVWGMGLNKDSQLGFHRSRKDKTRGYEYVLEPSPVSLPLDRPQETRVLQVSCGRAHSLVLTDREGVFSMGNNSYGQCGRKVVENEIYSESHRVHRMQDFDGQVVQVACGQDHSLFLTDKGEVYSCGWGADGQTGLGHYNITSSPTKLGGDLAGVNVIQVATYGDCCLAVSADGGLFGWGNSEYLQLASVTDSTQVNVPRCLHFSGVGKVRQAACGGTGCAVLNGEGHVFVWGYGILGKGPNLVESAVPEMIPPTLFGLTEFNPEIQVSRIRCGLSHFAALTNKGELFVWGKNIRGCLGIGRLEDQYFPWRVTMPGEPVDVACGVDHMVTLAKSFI
UniProt P84095: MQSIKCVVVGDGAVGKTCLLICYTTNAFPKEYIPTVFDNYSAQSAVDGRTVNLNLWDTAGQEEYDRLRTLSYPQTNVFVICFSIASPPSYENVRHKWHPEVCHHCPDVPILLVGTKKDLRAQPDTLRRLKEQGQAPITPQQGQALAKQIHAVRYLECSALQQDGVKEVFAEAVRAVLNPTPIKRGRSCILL
UniProt Q96HR9: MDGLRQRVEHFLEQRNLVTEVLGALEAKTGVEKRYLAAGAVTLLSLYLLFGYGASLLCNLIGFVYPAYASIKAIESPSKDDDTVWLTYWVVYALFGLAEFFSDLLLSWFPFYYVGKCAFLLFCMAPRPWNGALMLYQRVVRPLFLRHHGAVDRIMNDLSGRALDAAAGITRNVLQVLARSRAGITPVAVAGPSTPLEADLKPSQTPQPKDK
UniProt Q8TAC1: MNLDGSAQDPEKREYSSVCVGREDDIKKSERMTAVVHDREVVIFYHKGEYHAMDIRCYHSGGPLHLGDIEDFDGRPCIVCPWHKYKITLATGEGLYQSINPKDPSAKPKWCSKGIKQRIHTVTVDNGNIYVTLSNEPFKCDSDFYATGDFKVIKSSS
UniProt Q96DB5: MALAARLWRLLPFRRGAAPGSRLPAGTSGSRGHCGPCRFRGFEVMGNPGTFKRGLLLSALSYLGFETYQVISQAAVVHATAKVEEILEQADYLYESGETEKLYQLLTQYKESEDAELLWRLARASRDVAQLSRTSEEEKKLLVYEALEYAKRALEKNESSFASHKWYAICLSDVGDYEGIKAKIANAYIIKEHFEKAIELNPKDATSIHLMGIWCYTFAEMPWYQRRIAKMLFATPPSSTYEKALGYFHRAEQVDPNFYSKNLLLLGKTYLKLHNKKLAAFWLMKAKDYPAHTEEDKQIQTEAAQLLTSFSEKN
UniProt Q9H0Z9: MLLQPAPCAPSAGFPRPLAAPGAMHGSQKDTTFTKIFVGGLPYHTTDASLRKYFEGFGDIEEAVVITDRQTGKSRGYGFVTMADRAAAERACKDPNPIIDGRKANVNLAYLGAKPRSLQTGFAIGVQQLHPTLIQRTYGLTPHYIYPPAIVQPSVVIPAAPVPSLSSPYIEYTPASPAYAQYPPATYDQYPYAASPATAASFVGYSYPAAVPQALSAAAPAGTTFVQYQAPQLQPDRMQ
UniProt Q9Y508: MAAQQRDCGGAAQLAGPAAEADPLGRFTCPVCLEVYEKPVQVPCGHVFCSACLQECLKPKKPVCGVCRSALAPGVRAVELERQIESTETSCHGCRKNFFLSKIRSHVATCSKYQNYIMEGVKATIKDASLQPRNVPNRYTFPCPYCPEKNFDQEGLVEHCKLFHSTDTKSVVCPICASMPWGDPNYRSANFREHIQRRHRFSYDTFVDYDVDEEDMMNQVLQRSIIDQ
UniProt Q9P258, whole entry, looked up: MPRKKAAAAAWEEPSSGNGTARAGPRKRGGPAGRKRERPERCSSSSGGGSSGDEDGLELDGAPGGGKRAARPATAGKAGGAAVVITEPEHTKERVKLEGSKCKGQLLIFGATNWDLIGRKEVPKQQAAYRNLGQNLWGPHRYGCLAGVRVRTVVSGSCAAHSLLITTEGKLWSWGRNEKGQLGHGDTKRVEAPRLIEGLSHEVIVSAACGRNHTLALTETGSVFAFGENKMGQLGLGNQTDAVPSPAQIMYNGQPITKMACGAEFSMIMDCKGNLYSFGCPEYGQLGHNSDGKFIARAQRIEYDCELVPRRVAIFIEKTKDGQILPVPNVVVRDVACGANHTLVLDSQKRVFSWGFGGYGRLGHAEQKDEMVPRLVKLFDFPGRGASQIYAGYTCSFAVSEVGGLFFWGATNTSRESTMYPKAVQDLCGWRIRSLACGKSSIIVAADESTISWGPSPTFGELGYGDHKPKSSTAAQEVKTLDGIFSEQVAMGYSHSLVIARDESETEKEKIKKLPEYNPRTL
UniProt Q6JBY9, whole entry, looked up: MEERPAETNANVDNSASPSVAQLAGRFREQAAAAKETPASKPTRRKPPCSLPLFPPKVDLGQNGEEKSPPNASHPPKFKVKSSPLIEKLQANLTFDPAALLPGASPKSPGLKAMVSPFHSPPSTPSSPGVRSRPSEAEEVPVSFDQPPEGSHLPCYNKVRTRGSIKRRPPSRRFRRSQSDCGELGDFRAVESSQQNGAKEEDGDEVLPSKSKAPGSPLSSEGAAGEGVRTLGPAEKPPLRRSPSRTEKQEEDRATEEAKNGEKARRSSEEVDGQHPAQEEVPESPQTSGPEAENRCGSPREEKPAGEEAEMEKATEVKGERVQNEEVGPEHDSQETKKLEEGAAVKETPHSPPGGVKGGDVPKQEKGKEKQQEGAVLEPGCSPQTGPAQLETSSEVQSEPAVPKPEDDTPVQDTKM
UniProt P35249, whole entry, looked up: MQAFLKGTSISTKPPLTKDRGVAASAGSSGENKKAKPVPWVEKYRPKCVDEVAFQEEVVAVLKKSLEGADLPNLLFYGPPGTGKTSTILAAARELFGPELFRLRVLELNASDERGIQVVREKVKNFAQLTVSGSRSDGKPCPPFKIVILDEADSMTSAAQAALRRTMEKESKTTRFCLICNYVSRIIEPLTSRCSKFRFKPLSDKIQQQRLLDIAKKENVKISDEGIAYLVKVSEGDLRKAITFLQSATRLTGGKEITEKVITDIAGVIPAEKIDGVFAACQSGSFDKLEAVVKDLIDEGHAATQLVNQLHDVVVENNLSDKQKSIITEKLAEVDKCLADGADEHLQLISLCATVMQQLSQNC
UniProt P52758: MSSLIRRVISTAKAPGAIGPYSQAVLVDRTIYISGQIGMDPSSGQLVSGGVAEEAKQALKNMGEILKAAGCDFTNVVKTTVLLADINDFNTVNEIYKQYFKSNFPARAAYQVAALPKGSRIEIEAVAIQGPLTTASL
UniProt Q8TDP1: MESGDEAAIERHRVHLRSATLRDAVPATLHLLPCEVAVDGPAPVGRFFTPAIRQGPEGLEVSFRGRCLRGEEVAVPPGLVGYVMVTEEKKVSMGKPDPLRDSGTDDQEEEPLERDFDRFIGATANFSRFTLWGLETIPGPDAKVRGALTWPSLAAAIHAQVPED
UniProt O15258: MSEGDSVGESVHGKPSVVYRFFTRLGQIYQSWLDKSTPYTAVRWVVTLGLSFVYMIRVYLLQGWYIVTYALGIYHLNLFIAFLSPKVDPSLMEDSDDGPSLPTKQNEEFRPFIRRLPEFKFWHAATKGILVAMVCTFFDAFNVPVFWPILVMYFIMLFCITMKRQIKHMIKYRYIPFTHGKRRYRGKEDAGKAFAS
UniProt Q8NC42: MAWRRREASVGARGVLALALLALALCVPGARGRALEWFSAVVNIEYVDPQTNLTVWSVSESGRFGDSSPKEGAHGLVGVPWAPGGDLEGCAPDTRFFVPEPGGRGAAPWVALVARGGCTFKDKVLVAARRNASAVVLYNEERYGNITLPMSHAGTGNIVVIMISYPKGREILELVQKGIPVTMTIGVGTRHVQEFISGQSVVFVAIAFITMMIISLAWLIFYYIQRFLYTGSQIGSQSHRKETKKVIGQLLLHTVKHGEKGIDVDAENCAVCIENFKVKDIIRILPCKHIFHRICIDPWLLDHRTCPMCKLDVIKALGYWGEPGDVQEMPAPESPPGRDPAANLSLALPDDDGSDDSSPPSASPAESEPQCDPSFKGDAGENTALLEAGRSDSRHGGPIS

Assays:
Assay in all cases: log2 fold change, soluble protein after heating vs DMSO (PISA); higher = thermal stabilisation; K562 cells, 10 uM, 30 min; active = over 0.2 and 3.5 SD of the protein, either way, in both replicates (recomputed)
saracatinib = compound: CN1CCN(CCOc2cc(OC3CCOCC3)c3c(Nc4c(Cl)ccc5c4OCO5)ncnc3c2)CC1 [saracatinib]
How it was run: (§1)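 K562 cells (2×10^6 cells/mL) were treated with 10 μM compound for 30 min, and aliquots were heated for 3 min over 48°C-58°C. Pooled aliquots were extracted in PBS with 0.5% NP-40 at 4°C, and the supernatant after 21,000xg for 90 min was measured by TMTpro 16plex LC-MS/MS with channel sums equalised. Reported thermal stability, relative to control samples and from duplicates, is a log2 fold change.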

sotrastaurin = compound: CN1CCN(c2nc(C3=C(c4c[nH]c5ccccc45)C(=O)NC3=O)c3ccccc3n2)CC1 [sotrastaurin]
How it was run: as §1

alvocidib = compound: CN1CC[C@H](c2c(O)cc(O)c3c(=O)cc(-c4ccccc4Cl)oc23)[C@H](O)C1 [alvocidib]
How it was run: as §1

Tubastatin A = compound: CN1CCc2c(c3ccccc3n2Cc2ccc(C(=O)NO)cc2)C1 [Tubastatin A]
How it was run: as §1

[1] = compound: CNC(=O)C1=CC=CC=C1NC2=NC(=NC=C2Cl)NC3=C(C=C(C=C3)N4CCOCC4)OC
How it was run: as §1

defactinib = compound: CNC(=O)c1ccc(Nc2ncc(C(F)(F)F)c(NCc3nccnc3N(C)S(C)(=O)=O)n2)cc1 [defactinib]
How it was run: as §1

rucaparib = compound: CNCc1ccc(-c2[nH]c3cc(F)cc4c3c2CCNC4=O)cc1 [rucaparib]
How it was run: as §1

[2] = compound: CNc1nc(-c2ccc3c(N)n[nH]c3c2)cc(N2C[C@@H](C(=O)NC3CCCCC3)CC[C@H]2C)n1
How it was run: as §1

encorafenib = compound: COC(=O)N[C@@H](C)CNc1nccc(-c2cn(C(C)C)nc2-c2cc(Cl)cc(NS(C)(=O)=O)c2F)n1 [encorafenib]
How it was run: as §1

[3] = compound: COC(=O)[C@H](CCSC)NC(=O)C1=C(C=C(C=C1)NC[C@H](CS)N)C2=CC=CC=C2
How it was run: as §1

[4] = compound: COC1=CC=C(C=C1)CN2C=CC3=C2C=C(C=C3)C(=O)NO
How it was run: as §1

filanesib = compound: CON(C)C(=O)N1N=C(c2cc(F)ccc2F)S[C@@]1(CCCN)c1ccccc1 [filanesib]
How it was run: as §1

zotarolimus = compound: CO[C@H]1C[C@@H]2CC[C@@H](C)[C@@](O)(O2)C(=O)C(=O)N2CCCC[C@H]2C(=O)O[C@H]([C@H](C)C[C@@H]2CC[C@H](n3cnnn3)[C@H](OC)C2)CC(=O)[C@H](C)/C=C(\C)[C@@H](O)[C@@H](OC)C(=O)[C@H](C)C[C@H](C)/C=C/C=C/C=C/1C [zotarolimus]
How it was run: as §1

idasanutlin = compound: COc1cc(C(=O)O)ccc1NC(=O)[C@@H]1N[C@@H](CC(C)(C)C)[C@](C#N)(c2ccc(Cl)cc2F)[C@H]1c1cccc(Cl)c1F [idasanutlin]
How it was run: as §1

alisertib = compound: COc1cc(Nc2ncc3c(n2)-c2ccc(Cl)cc2C(c2c(F)cccc2OC)=NC3)ccc1C(=O)O [alisertib]
How it was run: as §1

[5] = compound: COc1cc2nc(-c3cc(F)ccc3O)nc(N[C@@H]3CNC[C@H]3C(C)(C)O)c2cc1OC
How it was run: as §1

gefitinib = compound: COc1cc2ncnc(Nc3ccc(F)c(Cl)c3)c2cc1OCCCN1CCOCC1 [gefitinib]
How it was run: as §1

[6] = compound: COc1cccc2cc(-c3nc([C@H]4CC[C@H](C(=O)O)CC4)n4ncnc(N)c34)[nH]c12
How it was run: as §1

lapatinib = compound: CS(=O)(=O)CCNCc1ccc(-c2ccc3ncnc(Nc4ccc(OCc5cccc(F)c5)c(Cl)c4)c3c2)o1 [lapatinib]
How it was run: as §1

pictilisib = compound: CS(=O)(=O)N1CCN(Cc2cc3nc(-c4cccc5[nH]ncc45)nc(N4CCOCC4)c3s2)CC1 [pictilisib]
How it was run: as §1

Measured: log2 fold change

RFXAP (UniProt O00287)
inactive: saracatinib -0.011 | sotrastaurin 0.006 | alvocidib -0.108 | Tubastatin A -0.003 | [1] -0.074 | defactinib -0.024 | rucaparib -0.02 | [2] -0.036 | encorafenib 0.101 | [3] 0.104 | [4] 0.002 | filanesib 0.101 | zotarolimus -0.015 | idasanutlin -0.047 | alisertib -0.132 | [5] 0.065 | gefitinib 0.031 | [6] -0.035 | lapatinib -0.023

RCHY1 (UniProt Q96PM5)
inactive: saracatinib 0.083 | sotrastaurin -0.014 | alvocidib -0.083 | Tubastatin A -0.004 | [1] -0.017 | defactinib -0.111 | rucaparib 0.02 | [2] -0.05 | encorafenib -0.026 | [3] 0 | [4] 0.043 | filanesib 0.035 | zotarolimus -0.025 | idasanutlin -0.021 | alisertib -0.01 | [5] 0.021 | gefitinib -0.027 | [6] 0 | lapatinib 0.016 | pictilisib -0.021

RCC1L (UniProt Q96I51)
inactive: saracatinib 0.017 | sotrastaurin -0.001 | alvocidib -0.036 | Tubastatin A -0.028 | [1] -0.022 | defactinib -0.017 | rucaparib -0.014 | [2] -0.058 | encorafenib -0.039 | [3] 0.021 | [4] 0.019 | filanesib -0.082 | zotarolimus 0.013 | idasanutlin -0.034 | alisertib -0.073 | [5] -0.039 | gefitinib 0.031 | [6] 0.034 | lapatinib 0.013 | pictilisib -0.021

RHOG (UniProt P84095)
inactive: saracatinib 0.034 | sotrastaurin 0.038 | alvocidib -0.026 | Tubastatin A -0.002 | [1] -0.02 | defactinib 0.01 | rucaparib -0.043 | [2] 0.002 | encorafenib -0.038 | [3] 0.009 | [4] 0.189 | filanesib -0.034 | zotarolimus 0.029 | idasanutlin 0.033 | alisertib -0.021 | [5] 0.044 | gefitinib 0.001 | [6] 0.046 | lapatinib -0.007 | pictilisib 0

REEP6 (UniProt Q96HR9)
inactive: saracatinib -0.02 | sotrastaurin 0.046 | alvocidib -0.006 | Tubastatin A -0.052 | [1] -0.006 | defactinib 0.036 | rucaparib -0.022 | [2] -0.061 | encorafenib 0.01 | [3] -0.001 | [4] 0.075 | filanesib 0.049 | zotarolimus -0.005 | idasanutlin 0.022 | alisertib 0.021 | [5] -0.044 | gefitinib 0.032 | [6] 0.072 | lapatinib -0.018 | pictilisib 0.04

Quoted from the entries so far (three entries):
RCHY1 (UniProt Q96PM5)
inactive: saracatinib 0.083 | sotrastaurin -0.014 | alvocidib -0.083 | Tubastatin A -0.004 | [1] -0.017 | defactinib -0.111 | rucaparib 0.02 | [2] -0.05 | encorafenib -0.026 | [3] 0 | [4] 0.043 | filanesib 0.035 | zotarolimus -0.025 | idasanutlin -0.021 | alisertib -0.01 | [5] 0.021 | gefitinib -0.027 | [6] 0 | lapatinib 0.016 | pictilisib -0.021

RCC1L (UniProt Q96I51)
inactive: saracatinib 0.017 | sotrastaurin -0.001 | alvocidib -0.036 | Tubastatin A -0.028 | [1] -0.022 | defactinib -0.017 | rucaparib -0.014 | [2] -0.058 | encorafenib -0.039 | [3] 0.021 | [4] 0.019 | filanesib -0.082 | zotarolimus 0.013 | idasanutlin -0.034 | alisertib -0.073 | [5] -0.039 | gefitinib 0.031 | [6] 0.034 | lapatinib 0.013 | pictilisib -0.021

RHOG (UniProt P84095)
inactive: saracatinib 0.034 | sotrastaurin 0.038 | alvocidib -0.026 | Tubastatin A -0.002 | [1] -0.02 | defactinib 0.01 | rucaparib -0.043 | [2] 0.002 | encorafenib -0.038 | [3] 0.009 | [4] 0.189 | filanesib -0.034 | zotarolimus 0.029 | idasanutlin 0.033 | alisertib -0.021 | [5] 0.044 | gefitinib 0.001 | [6] 0.046 | lapatinib -0.007 | pictilisib 0

Later entries

RFESD isoform 2 (UniProt Q8TAC1)
inactive: saracatinib -0.022 | sotrastaurin -0.001 | alvocidib -0.022 | Tubastatin A 0.005 | [1] -0.095 | defactinib -0.025 | rucaparib -0.036 | [2] -0.026 | encorafenib -0.011 | [3] 0.025 | [4] 0 | filanesib 0.027 | zotarolimus -0.009 | idasanutlin -0.023 | alisertib -0.037 | [5] -0.076 | gefitinib 0.037 | [6] 0.073 | lapatinib 0.013 | pictilisib -0.007

RMDN1 (UniProt Q96DB5)
inactive: saracatinib 0.026 | sotrastaurin 0.016 | alvocidib -0.088 | Tubastatin A -0.01 | [1] 0 | defactinib -0.034 | rucaparib -0.01 | [2] -0.023 | encorafenib -0.008 | [3] -0.016 | [4] -0.009 | filanesib -0.114 | zotarolimus 0.004 | idasanutlin -0.084 | alisertib -0.018 | [5] -0.034 | gefitinib -0.001 | [6] 0.038 | lapatinib 0.064 | pictilisib 0.019

RBM38 (UniProt Q9H0Z9)
inactive: saracatinib -0.018 | sotrastaurin 0.003 | alvocidib -0.063 | Tubastatin A 0.077 | [1] 0.021 | defactinib 0.114 | rucaparib 0.106 | [2] -0.021 | encorafenib -0.069 | [3] -0.197 | [4] -0.01 | filanesib -0.053 | zotarolimus 0.056 | idasanutlin 0.033 | alisertib -0.075 | [5] -0.047 | gefitinib -0.083 | [6] 0.064 | lapatinib 0.044 | pictilisib -0.09

RNF114 (UniProt Q9Y508)
inactive: saracatinib 0.003 | sotrastaurin 0.001 | alvocidib -0.03 | Tubastatin A -0.013 | [1] 0.012 | defactinib -0.038 | rucaparib 0.02 | [2] -0.004 | encorafenib -0.019 | [3] 0.033 | [4] 0.077 | filanesib -0.065 | zotarolimus 0.028 | idasanutlin 0.007 | alisertib -0.06 | [5] 0.019 | gefitinib -0.029 | [6] -0.068 | lapatinib -0.074 | pictilisib 0.036

RCC2 (UniProt Q9P258)
inactive: saracatinib -0.001 | sotrastaurin 0.003 | alvocidib -0.06 | Tubastatin A 0.002 | [1] 0.127 | defactinib -0.022 | rucaparib -0.018 | [2] -0.004 | encorafenib -0.002 | [3] -0.004 | [4] -0.006 | filanesib -0.07 | zotarolimus 0.022 | idasanutlin -0.057 | alisertib -0.04 | [5] 0.035 | gefitinib 0.04 | [6] 0.004 | lapatinib -0.015 | pictilisib 0.059

RCSD1 (UniProt Q6JBY9)
inactive: saracatinib 0.028 | sotrastaurin 0.09 | alvocidib 0.029 | Tubastatin A -0.048 | [1] 0.02 | defactinib 0.013 | rucaparib 0.001 | [2] -0.06 | encorafenib -0.017 | [3] 0.07 | [4] 0.11 | filanesib 0.065 | zotarolimus -0.08 | idasanutlin 0.027 | alisertib -0.043 | [5] -0.028 | gefitinib 0.004 | [6] 0.04 | lapatinib -0.061 | pictilisib 0.034

RFC4 (UniProt P35249)
inactive: saracatinib 0.013 | sotrastaurin -0.009 | alvocidib -0.051 | Tubastatin A -0.027 | [1] -0.059 | defactinib -0.05 | rucaparib 0.027 | [2] -0.023 | encorafenib 0 | [3] -0.007 | [4] 0.01 | filanesib -0.08 | zotarolimus 0.002 | idasanutlin 0.023 | alisertib -0.047 | [5] 0.016 | gefitinib -0.029 | [6] 0.034 | lapatinib -0.036 | pictilisib -0.04

RIDA (UniProt P52758)
inactive: saracatinib 0.093 | sotrastaurin 0.036 | alvocidib 0.051 | Tubastatin A -0.022 | [1] 0.247 | defactinib 0 | rucaparib -0.012 | [2] -0.005 | encorafenib -0.067 | [3] 0.006 | [4] 0.001 | filanesib -0.007 | zotarolimus 0.005 | idasanutlin 0.01 | alisertib -0.026 | [5] -0.033 | gefitinib 0.03 | [6] -0.015 | lapatinib -0.021 | pictilisib -0.001

RNASEH2C (UniProt Q8TDP1)
inactive: saracatinib -0.021 | sotrastaurin -0.111 | alvocidib -0.269 | Tubastatin A 0.107 | [1] 0.005 | defactinib -0.258 | rucaparib 0.004 | [2] 0.11 | encorafenib 0.025 | [3] -0.112 | [4] -0.016 | filanesib -0.062 | zotarolimus 0.096 | idasanutlin -0.055 | alisertib 0.024 | [5] 0.034 | gefitinib 0.046 | [6] 0.008 | lapatinib 0.003 | pictilisib 0.166

RER1 (UniProt O15258)
inactive: saracatinib 0.13 | sotrastaurin 0.014 | alvocidib -0.019 | Tubastatin A -0.011 | [1] 0.036 | defactinib -0.032 | rucaparib 0.068 | [2] -0.035 | encorafenib -0.04 | [3] -0.031 | [4] 0.004 | filanesib -0.077 | zotarolimus 0.046 | idasanutlin 0.183 | alisertib 0.029 | [5] -0.05 | gefitinib -0.007 | [6] 0 | lapatinib 0.014 | pictilisib -0.192

RNF149 (UniProt Q8NC42)
inactive: saracatinib 0 | sotrastaurin 0.06 | alvocidib -0.057 | Tubastatin A 0.135 | [1] -0.073 | defactinib 0.04 | rucaparib -0.019 | [2] 0.04 | encorafenib 0.133 | [3] 0.003 | [4] 0.026 | filanesib -0.039 | zotarolimus -0.052 | idasanutlin 0.058 | alisertib 0.013 | [5] -0.042 | gefitinib -0.043 | [6] 0.023 | lapatinib -0.02 | pictilisib 0
